Source: ChEMBL document CHEMBL3351372, “Structure-Based Drug Design of Novel Potent and Selective Tetrahydropyrazolo[1,5-a]pyrazines as ATR Inhibitors” (ACS Med Chem Lett, 2015)
Converted amounts (≈) assume the structure as drawn.

Chains of the proteins cited; added tags and fusions are not shown. Lines headed by an entry give the natural chain unless they say otherwise; changes in a name come on top.
UniProt Q12809: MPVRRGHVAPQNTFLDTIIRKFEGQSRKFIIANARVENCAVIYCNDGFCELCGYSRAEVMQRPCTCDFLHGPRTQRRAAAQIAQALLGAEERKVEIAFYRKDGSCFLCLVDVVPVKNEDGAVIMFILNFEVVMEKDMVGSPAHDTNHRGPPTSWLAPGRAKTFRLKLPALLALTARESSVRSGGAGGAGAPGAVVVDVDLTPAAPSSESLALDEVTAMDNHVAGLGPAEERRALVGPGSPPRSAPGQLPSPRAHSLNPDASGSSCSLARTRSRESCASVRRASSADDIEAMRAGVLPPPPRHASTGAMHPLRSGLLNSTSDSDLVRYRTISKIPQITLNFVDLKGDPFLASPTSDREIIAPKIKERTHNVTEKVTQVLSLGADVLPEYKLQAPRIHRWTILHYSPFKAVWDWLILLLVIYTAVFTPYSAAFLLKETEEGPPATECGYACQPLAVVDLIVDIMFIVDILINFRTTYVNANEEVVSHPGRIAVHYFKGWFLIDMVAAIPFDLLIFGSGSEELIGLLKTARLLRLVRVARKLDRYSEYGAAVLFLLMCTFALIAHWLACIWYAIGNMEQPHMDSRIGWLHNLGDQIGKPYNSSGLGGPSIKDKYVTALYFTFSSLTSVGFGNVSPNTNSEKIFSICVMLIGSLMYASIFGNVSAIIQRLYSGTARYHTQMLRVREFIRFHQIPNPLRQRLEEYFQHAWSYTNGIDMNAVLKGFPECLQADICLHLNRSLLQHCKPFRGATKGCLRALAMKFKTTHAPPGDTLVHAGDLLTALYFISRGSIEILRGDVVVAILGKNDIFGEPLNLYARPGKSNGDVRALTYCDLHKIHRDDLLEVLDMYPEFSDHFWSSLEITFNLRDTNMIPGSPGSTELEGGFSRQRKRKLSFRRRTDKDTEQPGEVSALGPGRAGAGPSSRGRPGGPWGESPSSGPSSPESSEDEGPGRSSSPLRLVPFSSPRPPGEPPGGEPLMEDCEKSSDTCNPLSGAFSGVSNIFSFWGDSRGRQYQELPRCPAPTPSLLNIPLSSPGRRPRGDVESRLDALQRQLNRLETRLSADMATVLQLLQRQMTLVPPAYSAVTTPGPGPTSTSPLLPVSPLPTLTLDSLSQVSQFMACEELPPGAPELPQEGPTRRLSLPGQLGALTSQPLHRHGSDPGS

What was measured:
[1] = Octanol-water distribution coefficient, log D of the compound with pH 7.4 PBS buffer
[2] = Solubility of the compound in PBS buffer at pH 7 by miniaturized shake flask equilibrium solubility assay
[3] = molecular target: Voltage-gated inwardly rectifying potassium channel KCNH2 (Homo sapiens, UniProt Q12809); assay: Inhibition of human ERG by automated whole cell electrophysiology

## C[C@@H]1Cn2ncc(-c3ccc(S(C)(=O)=O)cc3)c2CN1c1ccnc2[nH]ccc12
[1]
  logD: 2.3
[2]
  solubility thermodynamic: 122 µM (≈ 49.7 µg/mL)
[3]
  IC50: 1500 nM
